20 compounds from PubChem BioAssay AID330 (DTP/NCI, 2004) can be followed below.

Structures are written as SMILES. The list shows only some results of the screen, not a fair sample: it gathers tests that were run many times, whatever their T/C, doses with no T/C, and many T/C values between a quarter and a half above the control. Other doses and runs of a compound stand elsewhere. T/C: endpoint of the treated group in % of that of the vehicle group. Some doses have a count of surviving animals in place of a T/C: the source files T/C as zero there, which appears to mark a toxic dose or a test without result, not a measured value. Some survivor counts are full or nearly so, which does not show that the dose was tolerated: survival well below the control is almost never listed, so the zero probably covers shortened survival too. Counts of survivors are from the toxicity check (mostly the fifth day) where no day follows; animals may have died later. Schedules are NCI's codes, taken here to give the interval after Q, in days (D) or hours (H), and the number of doses after X. Some entries hold several experiments; the values are given in rising order. Additions like (4×) stand for listed records that agree. Where survival is the endpoint, the PubChem record calls one and a half times the control and up active, and a quarter to a half above the control has no call in these data; cut-offs in other NCI protocols can differ.

The assay relates to P388 leukemia ip, CD2F1 mice, survival T/C. Kind of assay: NCI In Vivo Anticancer Drug Screen. Data for tumor model P388 Leukemia (intraperitoneal) in CD2F1 (CDF1) mice. The note with it: T/C endpoint: median survival time, higher T/C = longer survival.
The mark [1] stands for this setting: dose: 200.0 mg/kg/injection, schedule: Q01DX009 (ip), vehicle: saline.
The mark [2] stands for this setting: dose: 200.0 mg/kg/injection, schedule: Q04DX003 (ip), vehicle: saline with Tween-80.
Where [3] appears, read: dose: 200.0 mg/kg/injection, schedule: Q01DX005 (ip), vehicle: saline with Tween-80.
Where [4] appears, read: dose: 100.0 mg/kg/injection, schedule: Q01DX009 (ip), vehicle: saline.
Setting [5] is: dose: 120.0 mg/kg/injection, schedule: Q01DX005 (ip), vehicle: saline with Tween-80.
[6] abbreviates: dose: 240.0 mg/kg/injection, schedule: Q01DX005 (ip), vehicle: saline with Tween-80.
The mark [7] stands for this setting: dose: 25.0 mg/kg/injection, schedule: Q01DX005 (ip), vehicle: water.

As for `CCCN(CCC)CCCOC(=O)c1ccc2oc3ccc(C(=O)OCCCN(CCC)CCC)cc3c2c1`, the survivor count under setting [1] is on record as 2 of 6.

`CC1[C@@H]2CC=C3[C@H]4CCC5Cc6nc7c(nc6C[C@@]5(C)C4(O)CC(=O)[C@]32CO[C@]12OC(C)(C)CC2O)CC1CC[C@@H]2C3=C[C@H]4O[C@@]5(O[C@@](C)(CO)C[C@@H]5O)C(C)[C@@]4(O)[C@]3(C)[C@@H](O)CC2[C@]1(C)C7` (stereo partly drawn): the survivor count reads like this: (dose: 0.06 mg/kg/injection, schedule: Q01DX009 (ip), vehicle: saline + alcohol) 6 of 6; (dose: 0.12 mg/kg/injection, schedule: Q01DX009 (ip), vehicle: saline + alcohol) 3 of 6; (dose: 0.25 mg/kg/injection, schedule: Q01DX009 (ip), vehicle: saline + alcohol) 0 of 6; (dose: 0.5 mg/kg/injection, schedule: Q01DX009 (ip), vehicle: saline + alcohol) 0 of 5; (dose: 80.0 micrograms/kg/injection, schedule: Q01DX005 (ip), vehicle: saline + alcohol) 2 of 6 and 6 of 6. For the same compound, the T/C (dose: 20.0 micrograms/kg/injection, schedule: Q01DX005 (ip), vehicle: saline + alcohol) was 127 % of control; the T/C (dose: 40.0 micrograms/kg/injection, schedule: Q01DX005 (ip), vehicle: saline + alcohol) was 127 and 135 % of control.

With `CCSC(=NC)Nc1ccc(Oc2ccc(Cl)cc2)cc1`, under “dose: 200.0 mg/kg/injection, schedule: Q01DX005 (ip), vehicle: Klucel (hydroxypropylcellulose) (HPC)”, the survivor count is recorded as 0 of 5.

`c1cc[n+]2cc3cc4c(cc3cc2c1)OCO4`: the T/C (dose: 12.5 mg/kg/injection, schedule: Q01DX009 (ip), vehicle: distilled water + Tween-80) is 127 and 129 % of control. The survivor count was 0 of 6 (dose: 25.0 mg/kg/injection, schedule: Q01DX009 (ip), vehicle: distilled water + Tween-80); 0 of 6 and 1 of 6 (dose: 50.0 mg/kg/injection, schedule: Q01DX009 (ip), vehicle: distilled water + Tween-80); 0 of 6 (dose: 100.0 mg/kg/injection, schedule: Q01DX009 (ip), vehicle: distilled water + Tween-80); 0 of 6 (dose: 200.0 mg/kg/injection, schedule: Q01DX009 (ip), vehicle: distilled water + Tween-80); 0 of 6 (dose: 400.0 mg/kg/injection, schedule: Q01DX009 (ip), vehicle: distilled water + Tween-80).

In the case of `CNC1c2ccccc2CCC1O` (stereo not drawn), where the note is “dose: 400.0 mg/kg/injection, schedule: Q04DX002 (ip), vehicle: Klucel (hydroxypropylcellulose) (HPC)”, the survivor count is 0 of 6.

Regarding `COP1(=O)OC(C)=C(C)c2cccn21` (stereo not drawn), the survivor count by setting is: under setting [2], 6 of 6; (dose: 400.0 mg/kg/injection, schedule: Q04DX003 (ip), vehicle: saline with Tween-80) 2 of 6.

In the case of `O=[N+]([O-])c1ccc(Sc2ncnc3nc[nH]c23)c2nonc12`, the survivor count (dose: 50.0 mg/kg/injection, schedule: Q01DX009 (ip), vehicle: Klucel (hydroxypropylcellulose) (HPC)) was 0 of 6; the survivor count (dose: 100.0 mg/kg/injection, schedule: Q01DX009 (ip), vehicle: Klucel (hydroxypropylcellulose) (HPC)) is 0 of 6; the survivor count (dose: 200.0 mg/kg/injection, schedule: Q01DX009 (ip), vehicle: Klucel (hydroxypropylcellulose) (HPC)) was 0 of 6.

Consider `CCN(CC)Cc1cc2[nH]c3c4ccc(Cl)cc4ncc3c2cc1OC` (tested in a mixture with another compound), for which the T/C (dose: 50.0 mg/kg/injection, schedule: Q01DX005 (ip), vehicle: saline with Tween-80) was 129 % of control. Also, the survivor count was 0 of 5 (dose: 100.0 mg/kg/injection, schedule: Q01DX005 (ip), vehicle: saline with Tween-80) and 1 of 5 (2×) under setting [3].

`O=C(O)CCCCCCCCC(=O)CCl`: the survivor count under setting [4] was 5 of 6.

On to `N#CCc1c(F)c(F)c(F)c(F)c1F`, for which the survivor count is, setting by setting: under setting [5], 1 of 6 and 3 of 6; under setting [6], 0 of 6.

Regarding `CCN1C=C/C(=C\C=C/c2cc[n+](CC)c3ccccc23)c2ccccc21`, the T/C (dose: 0.5 mg/kg/injection, schedule: Q04DX003 (ip), vehicle: saline) is 136 % of control.

Turning to `C[C@]12CC[C@H]3[C@@H](CCC4=CC(=O)CC[C@@]43C)[C@@H]1CC[C@@H]2OC(=O)Cc1ccc(N(CCCl)CCCl)cc1`, the T/C was 125 % of control under setting [2] and 127 % of control (dose: 600.0 mg/kg/injection, schedule: Q04DX003 (ip), vehicle: saline with Tween-80).

Take `CCC[n+]1c(/C=C/c2c(OC)cc(OC)cc2OC)ccc2ccccc21`: the survivor count is reported as 0 of 6 (dose: 12.5 mg/kg/injection, schedule: Q01DX009 (ip), vehicle: saline with Tween-80); 0 of 6 (dose: 25.0 mg/kg/injection, schedule: Q01DX009 (ip), vehicle: saline with Tween-80); 0 of 6 (dose: 50.0 mg/kg/injection, schedule: Q01DX009 (ip), vehicle: saline with Tween-80).

With `CCCCCCCCCCCOc1cccc(N2C(N)=NC(N)=NC2(C)C)c1`, the survivor count reads like this: (dose: 60.0 mg/kg/injection, schedule: Q01DX005 (ip), vehicle: saline with Tween-80) 2 of 6; under setting [5], 0 of 6; under setting [6], 0 of 6.

For `COC(=O)[C@@]12OC[C@@]34[C@@H](CC5=C(C)C(=O)C(O)=C[C@]5(C)[C@H]3[C@@H](O)[C@@H]1O)OC(=O)[C@H](OC(=O)/C=C(\C)C(C)(C)OC(C)=O)[C@@H]24`, the T/C was 126 and 135 % of control (dose: 1.0 mg/kg/injection, schedule: Q01DX009 (ip), vehicle: saline + alcohol); 135 and 148 % of control (dose: 2.0 mg/kg/injection, schedule: Q01DX009 (ip), vehicle: saline + alcohol).

As for `CC(=O)Nc1ccc(N=NN(C)c2ccccc2)cc1`, the survivor count (dose: 200.0 mg/kg/injection, schedule: Q01DX001 (ip), vehicle: saline) is listed as 0 of 6.

With `CCOc1ccc(-c2nc3ccc(-c4nc5ccc(N6CCN(C)CC6)cc5[nH]4)cc3[nH]2)cc1`, the T/C was 127 and 131 % of control (dose: 3.13 mg/kg/injection, schedule: Q01DX005 (ip), vehicle: water); 128, 134, 150, 156 % of control (dose: 6.25 mg/kg/injection, schedule: Q01DX005 (ip), vehicle: water); 127, 147, 150, 173 % of control (dose: 12.5 mg/kg/injection, schedule: Q01DX005 (ip), vehicle: water); 90, 106, 150 % of control under setting [7]. In addition, the survivor count is, setting by setting: under setting [7], 5 of 6; (dose: 50.0 mg/kg/injection, schedule: Q01DX005 (ip), vehicle: water) 3 of 6; (dose: 100.0 mg/kg/injection, schedule: Q01DX005 (ip), vehicle: water) 0 of 6; (dose: 200.0 mg/kg/injection, schedule: Q01DX005 (ip), vehicle: water) 0 of 6.

With `O=C1NC(c2ccccc2)(c2ccccc2)C(=O)N1CCS`, the T/C (dose: 50.0 mg/kg/injection, schedule: Q04DX003 (ip), vehicle: Klucel (hydroxypropylcellulose) (HPC)) is 137 % of control.

With `COc1cc(-c2ccc(N=Nc3ccc4c(S(=O)(=O)O)cc(S(=O)(=O)O)c(N)c4c3O)c(OC)c2)ccc1N=Nc1ccc2c(S(=O)(=O)O)cc(S(=O)(=O)O)c(N)c2c1O`, the survivor count reads like this: (dose: 50.0 mg/kg/injection, schedule: Q01DX009 (ip), vehicle: saline) 6 of 6; under setting [4], 5 of 6; under setting [1], 0 of 6; (dose: 400.0 mg/kg/injection, schedule: Q01DX009 (ip), vehicle: saline) 0 of 6.

`CCN(CC)c1ccc2nc3ccc(N=Nc4ccc(O)cc4)cc3[n+](-c3ccccc3)c2c1`: the survivor count under setting [3] is given as 0 of 5.
